According to paper PMC11339338:
Results are given in words; binding and its absence hold for the method and conditions named. In cells and extracts the contact can be indirect. Binding calls can cover weak binding; strength is not graded here.

Protein sequences, listed by entry. Tags and fused reporters are not part of them. Lines headed by an entry give the natural chain unless they say otherwise; changes in a name come on top.
UniProt Q86U44: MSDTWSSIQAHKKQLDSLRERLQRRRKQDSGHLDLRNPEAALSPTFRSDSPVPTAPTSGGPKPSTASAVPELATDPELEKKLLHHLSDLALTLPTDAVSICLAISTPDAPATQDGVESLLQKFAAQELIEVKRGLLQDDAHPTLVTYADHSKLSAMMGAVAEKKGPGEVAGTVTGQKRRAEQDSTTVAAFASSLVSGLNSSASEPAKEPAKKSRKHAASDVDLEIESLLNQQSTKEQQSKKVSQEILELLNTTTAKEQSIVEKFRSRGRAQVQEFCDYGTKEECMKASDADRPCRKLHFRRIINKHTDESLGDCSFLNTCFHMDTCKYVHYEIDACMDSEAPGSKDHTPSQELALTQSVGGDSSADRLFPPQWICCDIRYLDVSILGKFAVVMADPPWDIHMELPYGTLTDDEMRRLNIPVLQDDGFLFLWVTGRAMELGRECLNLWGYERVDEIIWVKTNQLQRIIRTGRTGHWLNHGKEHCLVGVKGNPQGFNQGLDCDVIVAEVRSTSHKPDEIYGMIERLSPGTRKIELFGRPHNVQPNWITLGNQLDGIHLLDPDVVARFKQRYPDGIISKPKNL
UniProt Q16531: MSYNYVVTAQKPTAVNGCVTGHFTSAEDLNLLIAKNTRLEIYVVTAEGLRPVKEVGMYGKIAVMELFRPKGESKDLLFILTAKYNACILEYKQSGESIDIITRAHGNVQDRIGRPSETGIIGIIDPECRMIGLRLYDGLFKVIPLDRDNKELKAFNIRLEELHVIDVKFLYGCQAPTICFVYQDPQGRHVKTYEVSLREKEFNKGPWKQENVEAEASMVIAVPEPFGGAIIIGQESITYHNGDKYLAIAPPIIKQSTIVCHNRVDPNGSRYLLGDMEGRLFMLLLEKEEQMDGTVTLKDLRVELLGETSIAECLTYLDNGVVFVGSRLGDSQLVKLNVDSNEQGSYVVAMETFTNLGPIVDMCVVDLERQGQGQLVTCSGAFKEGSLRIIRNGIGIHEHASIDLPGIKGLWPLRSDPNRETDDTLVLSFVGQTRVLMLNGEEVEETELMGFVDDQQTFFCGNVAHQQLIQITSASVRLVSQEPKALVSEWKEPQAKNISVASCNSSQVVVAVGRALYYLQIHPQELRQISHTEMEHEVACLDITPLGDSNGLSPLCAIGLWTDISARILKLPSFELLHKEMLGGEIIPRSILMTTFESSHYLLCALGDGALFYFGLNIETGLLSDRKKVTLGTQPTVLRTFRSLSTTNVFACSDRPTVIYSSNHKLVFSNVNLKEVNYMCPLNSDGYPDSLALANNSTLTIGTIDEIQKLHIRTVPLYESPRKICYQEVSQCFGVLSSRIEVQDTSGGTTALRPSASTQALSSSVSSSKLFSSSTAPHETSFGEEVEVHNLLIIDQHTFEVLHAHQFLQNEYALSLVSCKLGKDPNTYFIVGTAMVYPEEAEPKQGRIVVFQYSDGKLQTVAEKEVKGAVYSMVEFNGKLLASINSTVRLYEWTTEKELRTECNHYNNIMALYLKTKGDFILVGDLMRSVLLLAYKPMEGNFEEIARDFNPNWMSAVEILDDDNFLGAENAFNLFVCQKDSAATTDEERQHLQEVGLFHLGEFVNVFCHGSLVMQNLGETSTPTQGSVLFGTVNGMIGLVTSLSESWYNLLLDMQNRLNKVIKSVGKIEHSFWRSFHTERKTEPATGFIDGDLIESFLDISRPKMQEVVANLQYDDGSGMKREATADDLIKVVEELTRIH
UniProt Q9H5I1: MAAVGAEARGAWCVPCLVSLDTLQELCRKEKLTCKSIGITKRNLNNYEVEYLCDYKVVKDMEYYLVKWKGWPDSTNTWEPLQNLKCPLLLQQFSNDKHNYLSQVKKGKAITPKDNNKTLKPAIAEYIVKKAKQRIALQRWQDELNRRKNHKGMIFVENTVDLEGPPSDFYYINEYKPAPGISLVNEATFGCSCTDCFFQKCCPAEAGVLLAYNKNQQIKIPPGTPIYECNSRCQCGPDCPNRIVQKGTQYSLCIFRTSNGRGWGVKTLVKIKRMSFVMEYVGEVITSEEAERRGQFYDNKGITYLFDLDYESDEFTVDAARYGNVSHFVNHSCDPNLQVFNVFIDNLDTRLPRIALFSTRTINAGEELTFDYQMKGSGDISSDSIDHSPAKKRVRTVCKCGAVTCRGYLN

B1: SUV39H1 (protein, UniProt O43463 1-412)
chain: MAENLKGCSVCCKSSWNQLQDLCRLAKLSCPALGISKRNLYDFEVEYLCDYKKIREQEYYLVKWRGYPDSESTWEPRQNLKCVRILKQFHKDLERELLRRHHRSKTPRHLDPSLANYLVQKAKQRRALRRWEQELNAKRSHLGRITVENEVDLDGPPRAFVYINEYRVGEGITLNQVAVGCECQDCLWAPTGGCCPGASLHKFAYNDQGQVRLRAGLPIYECNSRCRCGYDCPNRVVQKGIRYDLCIFRTDDGRGWGVRTLEKIRKNSFVMEYVGEIITSEEAERRGQIYDRQGATYLFDLDYVEDVYTVDAAYYGNISHFVNHSCDPNLQVYNVFIDNLDERLPRIAFFATRTIRAGEELTFDYNMQVDPVDMESTRMDSNFGLAGLPGSPKKRVRIECKCGTESCRKYLF

molecular target: mutant METTL3 (exogenous, in METTL3−/− hESCs rescued by mutant METTL3) (UniProt Q86U44); experiment: co-IP; anti-METTL3 antibody, protein A and G magnetic beads, whole cell extract of WT hESCs or METTL3−/− hESCs rescued by WT or mutant METTL3; 50 mM Tris-HCl pH 7.6, 150 mM KCl, 1 mM EDTA, 10% glycerol, 4 °C 16 h; also with RNase A treatment (interactions impaired)

binding, binds weakly:
DDB1 (from UniProt Q16531 1-1140), SUV39H2 (from UniProt Q9H5I1 1-410), B1
